The results in this text go back to PMC10710507 (Nature Communications, 2023).

By UniProt entry, the sequences of proteins in these tests, tags left out.
UniProt P20789: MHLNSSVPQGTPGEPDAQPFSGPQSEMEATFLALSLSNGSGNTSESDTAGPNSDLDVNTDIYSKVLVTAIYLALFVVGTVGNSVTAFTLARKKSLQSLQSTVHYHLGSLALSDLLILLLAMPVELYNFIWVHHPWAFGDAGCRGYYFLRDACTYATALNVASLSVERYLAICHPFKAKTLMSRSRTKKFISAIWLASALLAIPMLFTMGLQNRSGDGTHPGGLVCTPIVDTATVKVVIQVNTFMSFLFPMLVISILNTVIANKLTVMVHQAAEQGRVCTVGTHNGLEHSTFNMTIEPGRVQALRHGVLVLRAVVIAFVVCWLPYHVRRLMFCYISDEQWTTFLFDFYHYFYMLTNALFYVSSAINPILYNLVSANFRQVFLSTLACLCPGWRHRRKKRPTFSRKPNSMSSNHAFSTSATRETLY
UniProt P32121: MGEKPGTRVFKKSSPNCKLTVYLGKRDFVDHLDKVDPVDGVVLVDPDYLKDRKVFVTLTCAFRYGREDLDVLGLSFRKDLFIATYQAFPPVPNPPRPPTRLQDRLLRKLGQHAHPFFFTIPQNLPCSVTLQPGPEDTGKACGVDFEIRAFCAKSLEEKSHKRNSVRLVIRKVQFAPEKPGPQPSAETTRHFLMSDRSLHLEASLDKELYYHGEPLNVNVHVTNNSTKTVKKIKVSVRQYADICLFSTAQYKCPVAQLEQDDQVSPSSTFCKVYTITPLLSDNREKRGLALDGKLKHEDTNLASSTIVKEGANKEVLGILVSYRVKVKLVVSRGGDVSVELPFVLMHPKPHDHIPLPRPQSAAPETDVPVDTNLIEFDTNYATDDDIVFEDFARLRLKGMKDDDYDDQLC

The target in assay [1] is HA-FLAG-wt-rNTS1-nLuc (rat) (UniProt P20789). In words: FRET or BRET; HEK293T co-transfected with HA-FLAG-wt-rNTS1-nLuc and human β-arrestin-2-Venus; BRET ratio (Venus/nLuc) over time after addition of ligand, 37 C.
For assay [2], the target named is wt-rNTS1 (wild-type rat neurotensin receptor 1) on HEK293F cells (rat) (UniProt P20789). Put plainly: flow cytometry on cells; cell surface competition: 100,000 HEK293F cells stably expressing receptor, unlabelled ligand varied against 5 nM Cy5-NT8-13, 1 h at room temperature, mCherry-positive single cells, One site - Fit Ki; only the binder purified.

These are yes or no findings as the source states them, for the method shown. For some assays here: Binding seen in cells or lysates may run through a third protein. Some entries that bind do so weakly or less than the wild type.

On to “human β-arrestin-2-Venus (from UniProt P32121 1-409)”, for which the binding result in assay [1] is “binds”.
On to RRPYIL (Cy5 (position not given)) [Cy5-NT8-13], for which the binding entry in assay [2] is recorded as “binds”.
